The subject of the experiment is L1210 leukemia ip in BDF1 mice, survival T/C. Nature of the experiment: NCI In Vivo Anticancer Drug Screen. Data for tumor model L1210 Leukemia (intraperitoneal) in B6D2F1 (BDF1) mice. As to conditions: T/C endpoint: mean survival time, higher T/C = longer survival.
[1] abbreviates: dose: 100.0 mg/kg/injection, schedule: Q04DX003 (ip), vehicle: saline with Tween-80.
Setting [2] is: dose: 200.0 mg/kg/injection, schedule: Q04DX003 (ip), vehicle: saline with Tween-80.
Setting [3] is: dose: 400.0 mg/kg/injection, schedule: Q04DX003 (ip), vehicle: saline with Tween-80.
Where [4] appears, read: dose: 300.0 mg/kg/injection, schedule: Q01DX001 (ip), vehicle: saline.
The mark [5] stands for this setting: dose: 400.0 mg/kg/injection, schedule: Q01DX001 (ip), vehicle: saline.
The mark [6] stands for this setting: dose: 200.0 mg/kg/injection, schedule: Q04DX002 (ip), vehicle: Klucel (hydroxypropylcellulose) (HPC).
[7] abbreviates: dose: 400.0 mg/kg/injection, schedule: Q04DX002 (ip), vehicle: Klucel (hydroxypropylcellulose) (HPC).
Where [8] appears, read: dose: 400.0 mg/kg/injection, schedule: Q01DX001 (ip), vehicle: carboxymethylcellulose (CMC).
Setting [9] is: dose: 200.0 mg/kg/injection, schedule: Q04DX002 (ip), vehicle: saline with Tween-80.
Setting [10] is: dose: 400.0 mg/kg/injection, schedule: Q04DX003 (ip), vehicle: Klucel (hydroxypropylcellulose) (HPC).

Structures are written as SMILES. The list is a part of this screen's results and no random one: it is rich in T/C values a quarter to a half above the control, in often repeated tests (any T/C) and in doses without a T/C. Further doses and runs are listed elsewhere. T/C: endpoint of the treated group in % of that of the vehicle group. Some entries give survivors of the animals treated and no T/C: the source files T/C as zero there, which appears to mark a toxic dose or a test without result, not a measured value. Some survivor counts are full or nearly so, which does not show that the dose was tolerated: the source hardly ever lists a survival T/C far under the control, and the zero likely stands for such cases as well. Survivors were counted at the toxicity check, usually on the fifth day, unless a day is given; later deaths do not show. Schedule codes are those of the source, read here as Q, the interval in days (D) or hours (H), X, the number of doses. Some schedule codes hold Z or #, which are not explained here. For survival time, this PubChem deposit counts one and a half times the control or more as active, and values a quarter to a half above the control carry no call in these data; other NCI protocols may use other cut-offs. Some T/C values are followed by the survivors on the day toxicity was checked, most often the fifth; without a count, all were alive then. Some entries were tested several times; the results are listed from low to high.

From PubChem BioAssay AID248 (DTP/NCI, 2004) come the findings set out here.

`C=CC[P+](CCCC)(CCCC)CCCC`: the survivor count is recorded as 0 of 6 (dose: 25.0 mg/kg/injection, schedule: Q04DX003 (ip), vehicle: saline with Tween-80); 0 of 6 (dose: 25.0 mg/kg/injection, schedule: Q04DX003 (ip), vehicle: saline); 0 of 6 (dose: 50.0 mg/kg/injection, schedule: Q04DX003 (ip), vehicle: saline with Tween-80); 0 of 6 under setting [1]; 0 of 6 under setting [2]; 0 of 6 under setting [3].
`O=S(=O)(CCl)OCCCCOS(=O)(=O)CCl`: the T/C (dose: 54.0 mg/kg/injection, schedule: Q01DX015 (ip), vehicle: saline) was 125 % of control; the T/C (dose: 90.0 mg/kg/injection, schedule: Q01DX009 (ip), vehicle: saline) is 136 % of control [5 of 6 alive]; the T/C (dose: 150.0 mg/kg/injection, schedule: Q01DX015 (ip), vehicle: saline) is 136 % of control; the T/C (dose: 200.0 mg/kg/injection, schedule: Q01DX001 (ip), vehicle: saline, evaluated on day 30) was 107 % of control; the T/C (dose: 200.0 mg/kg/injection, schedule: Q01DX001 (ip), vehicle: saline, run until all animals had died) was 109, 121, 129 % of control [3 of 4 alive]; the T/C under setting [4] is 128 % of control [4 of 6 alive]. Further, the survivor count is, setting by setting: (dose: 150.0 mg/kg/injection, schedule: Q01DX009 (ip), vehicle: saline) 1 of 6; under setting [5], 0 of 4; (dose: 400.0 mg/kg/injection, schedule: Q01DX015 (ip), vehicle: saline) 0 of 6.
As for `N/C(=N\[N+](=O)[O-])Nc1nc2ccccc2s1`, under setting [6], the T/C is 142 % of control [2 of 3 alive]. Further, under setting [7], the survivor count is 1 of 3.
Consider `O=C1C(Br)=C(C2CCCCC2)C(=O)c2ccccc21`, for which the survivor count under setting [8] was 1 of 4.
Regarding `CCOC(=O)C1C(=O)CC2c3nc4ccccc4cc3CN2C1=O` (configuration not stated), under setting [4], the survivor count was 3 of 6.
Regarding `c1ccc2cc(B(c3cccc4ccccc34)c3cccc4ccccc34)ccc2c1`, the survivor count (dose: 100.0 mg/kg/injection, schedule: Q04DX002 (ip), vehicle: saline with Tween-80) is 1 of 3; the survivor count under setting [9] is 1 of 3; the survivor count (dose: 400.0 mg/kg/injection, schedule: Q04DX002 (ip), vehicle: saline with Tween-80) is recorded as 0 of 3.
With `O=C(NC1CCCCC1)c1ccc2ccccc2c1O`, the survivor count under setting [1] is recorded as 1 of 6.
In the case of `COC(=O)C(CC(C)C)NC(=O)C(N)Cc1ccc(OCc2ccccc2)cc1` (configuration not stated), the survivor count is given as 6 of 6 (dose: 50.0 mg/kg/injection, schedule: Q01DX009 (ip), vehicle: saline with Tween-80); 2 of 6 (dose: 100.0 mg/kg/injection, schedule: Q01DX009 (ip), vehicle: saline with Tween-80); 5 of 6 under setting [2]; 0 of 6 under setting [3].
For the compound `CCc1cnccc1C`, the survivor count was 2 of 6 (dose: 200.0 mg/kg/injection, schedule: Q04DX003 (ip), vehicle: Klucel (hydroxypropylcellulose) (HPC)) and 0 of 6 under setting [10].
As to `COC(=O)c1ccccc1NS(=O)(=O)c1ccc(Cl)cc1`, the survivor count under setting [6] is 3 of 3.
As for `COc1ccc2c(C)[n+]3ccc4cc(OC)c(OC)cc4c3cc2c1` (tested in a mixture with another compound), the T/C was 127 % of control [9 of 10 alive] (dose: 10.0 mg/kg/injection, schedule: Q01DX009 (ip), vehicle: saline); 129 % of control (dose: 30.0 mg/kg/injection, schedule: Q01DX009 (ip), vehicle: saline); 128 % of control [5 of 6 alive] (dose: 50.0 mg/kg/injection, schedule: Q01DX009 (ip), vehicle: saline); 130 % of control (dose: 80.0 mg/kg/injection, schedule: Q01DX009 (ip), vehicle: saline).
Take `CCOC(=O)c1cc2nc(C(C)C)n(Cc3ccccc3)c2cc(C(=O)OCC)c1=O`: the survivor count (dose: 400.0 mg/kg/injection, schedule: Q01DX009 (ip), vehicle: Klucel (hydroxypropylcellulose) (HPC)) is on record as 3 of 3.
Consider `CCN=C(Nc1ccccc1)c1ccc(C(=NCC)Nc2ccccc2)cc1`, for which the survivor count was 0 of 6 (dose: 15.0 mg/kg/injection, schedule: Q01DX Z (ip), vehicle: carboxymethylcellulose (CMC)); 0 of 6 (dose: 30.0 mg/kg/injection, schedule: Q01DX Z (ip), vehicle: carboxymethylcellulose (CMC)); 0 of 6 (dose: 60.0 mg/kg/injection, schedule: Q01DX Z (ip), vehicle: carboxymethylcellulose (CMC)); 0 of 6 (dose: 120.0 mg/kg/injection, schedule: Q01DX Z (ip), vehicle: carboxymethylcellulose (CMC)).
Take `CCCCCC(CN(C)C)C(=O)/C=C/c1ccc(Cl)c(Cl)c1` (configuration not stated): the survivor count is, setting by setting: (dose: 50.0 mg/kg/injection, schedule: Q04DX003 (ip), vehicle: acetone) 3 of 6; (dose: 100.0 mg/kg/injection, schedule: Q04DX003 (ip), vehicle: acetone) 0 of 6; (dose: 200.0 mg/kg/injection, schedule: Q04DX003 (ip), vehicle: acetone) 0 of 6; (dose: 400.0 mg/kg/injection, schedule: Q04DX003 (ip), vehicle: acetone) 0 of 6.
Take `Cc1cc(Cl)ccc1OCC(=O)Oc1c(Cl)c(Cl)c(Cl)c(Cl)c1Cl`: the survivor count under setting [7] is 3 of 3.
As for `CC(C)=CC(=O)CNC(N)=S`, the survivor count under setting [10] is on record as 1 of 6.
As for `Cc1cc(C)c(S(=O)(=O)NN)c(C)c1`, the survivor count under setting [3] is 3 of 6.
For the compound `CC(Br)C(=O)Nc1ccc(C(=O)O)c(O)c1` (configuration not stated), the survivor count by setting is: (dose: 200.0 mg/kg/injection, schedule: Q01DX009 (ip), vehicle: saline with Tween-80) 2 of 6; (dose: 400.0 mg/kg/injection, schedule: Q01DX009 (ip), vehicle: saline with Tween-80) 0 of 6.
As for `CC(CO)[CH2][Sn]([c]1ccccc1)([c]1ccccc1)[c]1ccccc1` (configuration not stated), under setting [9], the T/C is 125 % of control [2 of 3 alive].
Regarding `c1ccc(CNc2cnccn2)cc1`, under setting [5], the survivor count is recorded as 2 of 4.
Regarding `CC(=O)Nc1cc2c(cc1Br)-c1ccccc1C2O` (configuration not stated), the survivor count reads like this: (dose: 375.0 mg/kg/injection, schedule: Q01DX Z (ip), vehicle: other) 3 of 6; under setting [8], 1 of 4; (dose: 1000.0 mg/kg/injection, schedule: Q01DX Z (ip), vehicle: saline) 0 of 6.
Take `CCCCCCCCCC[Se]C#N`: the survivor count is, setting by setting: (dose: 20.0 mg/kg/injection, schedule: Q01DX001 (ip), vehicle: saline) 2 of 4; (dose: 40.0 mg/kg/injection, schedule: Q01DX001 (ip), vehicle: saline) 0 of 4; (dose: 80.0 mg/kg/injection, schedule: Q01DX001 (ip), vehicle: saline) 0 of 4.
Regarding `Oc1ccc(Cl)cc1Sc1cc(Cl)ccc1O`, the survivor count is reported as 2 of 6 (dose: 200.0 mg/kg/injection, schedule: Q04DX003 (ip), vehicle: saline) and 2 of 6 (dose: 400.0 mg/kg/injection, schedule: Q04DX003 (ip), vehicle: saline).
Regarding `CCCCC(CC)CNCC(CC)CCCC` (configuration not stated), the survivor count reads like this: (dose: 200.0 mg/kg/injection, schedule: Q04DX013 (ip), vehicle: carboxymethylcellulose (CMC)) 1 of 6; (dose: 400.0 mg/kg/injection, schedule: Q04DX013 (ip), vehicle: carboxymethylcellulose (CMC)) 0 of 6.
As for `Brc1cccc[n+]1Cc1ccc(C[n+]2ccccc2Br)cc1`, the survivor count (dose: 1.55 mg/kg/injection, schedule: Q01DX Z (ip), vehicle: saline) was 3 of 6 and the survivor count (dose: 4.0 mg/kg/injection, schedule: Q01DX Z (ip), vehicle: saline) is recorded as 2 of 6.
